Data published in PMC4299599, “Quantification of cytosolic interactions identifies Ede1 oligomers as key organizers of endocytosis” (Molecular Systems Biology, 2014).
These are yes or no findings as the source states them, for the method shown. Some entries that bind do so weakly or less than the wild type.

How the values were obtained:
End3 (S. cerevisiae) = biological target: T1, End3 (S. cerevisiae) (UniProt P39013); experiment: fluorescence cross-correlation spectroscopy (FCCS); living yeast cells, observation volume in the cytoplasm; one protein tagged with (3)myeGFP/eGFP and the other with 3mCherry in the same strain; apparent (effective) KD; interactions up to ~1 μM detectable
T1 sequence: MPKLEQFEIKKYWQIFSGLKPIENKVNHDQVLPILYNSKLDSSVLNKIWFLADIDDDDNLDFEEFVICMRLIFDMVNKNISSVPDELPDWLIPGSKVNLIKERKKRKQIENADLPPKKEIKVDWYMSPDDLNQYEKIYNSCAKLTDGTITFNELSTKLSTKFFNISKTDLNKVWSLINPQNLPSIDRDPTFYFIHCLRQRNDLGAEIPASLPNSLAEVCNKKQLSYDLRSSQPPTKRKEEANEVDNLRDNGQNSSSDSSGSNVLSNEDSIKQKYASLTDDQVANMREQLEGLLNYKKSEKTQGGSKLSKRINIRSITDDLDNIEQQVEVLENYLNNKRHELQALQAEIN

Pan1 = biological target: T2, Pan1 (S. cerevisiae, UniProt P32521 1-1480); experiment: as above
T2 construct: Pan1, S. cerevisiae; also called Pan1-1myeGFP; Pan1-3mCherry; source: chromosomally tagged at the endogenous locus, in the cytoplasm of living S. cerevisiae cells
T2 sequence (looked up): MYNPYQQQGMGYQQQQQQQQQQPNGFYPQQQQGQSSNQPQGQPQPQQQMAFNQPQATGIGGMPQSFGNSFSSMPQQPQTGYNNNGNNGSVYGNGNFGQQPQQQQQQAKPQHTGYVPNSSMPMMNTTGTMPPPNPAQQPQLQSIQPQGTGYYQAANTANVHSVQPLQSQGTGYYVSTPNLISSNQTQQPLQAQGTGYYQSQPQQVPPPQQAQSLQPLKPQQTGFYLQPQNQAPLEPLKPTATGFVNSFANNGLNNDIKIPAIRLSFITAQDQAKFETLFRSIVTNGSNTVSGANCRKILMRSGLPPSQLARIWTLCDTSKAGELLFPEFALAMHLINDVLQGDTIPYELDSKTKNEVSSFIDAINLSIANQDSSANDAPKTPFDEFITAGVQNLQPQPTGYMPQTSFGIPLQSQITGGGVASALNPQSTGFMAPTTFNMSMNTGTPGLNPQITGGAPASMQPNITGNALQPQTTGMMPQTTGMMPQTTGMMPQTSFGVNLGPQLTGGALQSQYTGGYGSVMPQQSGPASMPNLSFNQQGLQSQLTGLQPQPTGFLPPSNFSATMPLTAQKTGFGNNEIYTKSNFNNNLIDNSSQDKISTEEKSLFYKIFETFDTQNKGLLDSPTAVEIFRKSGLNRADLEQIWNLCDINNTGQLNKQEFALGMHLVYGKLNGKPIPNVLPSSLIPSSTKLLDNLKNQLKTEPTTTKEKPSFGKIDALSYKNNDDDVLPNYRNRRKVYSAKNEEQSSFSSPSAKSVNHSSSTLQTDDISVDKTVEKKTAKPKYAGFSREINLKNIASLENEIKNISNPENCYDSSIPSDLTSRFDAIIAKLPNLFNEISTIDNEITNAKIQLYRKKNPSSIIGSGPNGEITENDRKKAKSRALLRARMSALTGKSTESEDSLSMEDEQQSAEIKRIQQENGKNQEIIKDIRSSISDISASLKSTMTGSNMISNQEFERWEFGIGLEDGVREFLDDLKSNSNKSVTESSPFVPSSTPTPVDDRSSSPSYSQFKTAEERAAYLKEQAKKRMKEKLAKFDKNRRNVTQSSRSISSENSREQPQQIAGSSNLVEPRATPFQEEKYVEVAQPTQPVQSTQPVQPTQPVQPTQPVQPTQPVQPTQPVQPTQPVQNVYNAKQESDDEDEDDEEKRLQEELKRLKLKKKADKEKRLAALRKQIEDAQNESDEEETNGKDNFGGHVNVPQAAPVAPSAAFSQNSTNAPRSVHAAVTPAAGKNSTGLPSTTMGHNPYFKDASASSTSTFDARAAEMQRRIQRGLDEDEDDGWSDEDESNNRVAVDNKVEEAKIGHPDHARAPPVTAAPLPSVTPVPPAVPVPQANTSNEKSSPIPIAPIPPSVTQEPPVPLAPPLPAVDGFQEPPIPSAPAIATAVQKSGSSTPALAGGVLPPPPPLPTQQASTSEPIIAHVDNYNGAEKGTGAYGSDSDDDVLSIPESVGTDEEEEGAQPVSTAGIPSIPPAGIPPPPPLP

Sla2 = biological target: T3, Sla2 (S. cerevisiae, UniProt P33338 1-968); experiment: fluorescence cross-correlation spectroscopy (FCCS); self-interaction: living diploid yeast cells with one allele fused to (3)myeGFP and one to (3)mCherry, cytoplasm; apparent (effective) KD, to be taken as the upper limit since complexes of one colour are not seen
T3 construct: Sla2, S. cerevisiae; also called Sla2-3myeGFP; Sla2-3mCherry; source: chromosomally tagged at the endogenous locus, in the cytoplasm of living S. cerevisiae cells
T3 sequence (looked up): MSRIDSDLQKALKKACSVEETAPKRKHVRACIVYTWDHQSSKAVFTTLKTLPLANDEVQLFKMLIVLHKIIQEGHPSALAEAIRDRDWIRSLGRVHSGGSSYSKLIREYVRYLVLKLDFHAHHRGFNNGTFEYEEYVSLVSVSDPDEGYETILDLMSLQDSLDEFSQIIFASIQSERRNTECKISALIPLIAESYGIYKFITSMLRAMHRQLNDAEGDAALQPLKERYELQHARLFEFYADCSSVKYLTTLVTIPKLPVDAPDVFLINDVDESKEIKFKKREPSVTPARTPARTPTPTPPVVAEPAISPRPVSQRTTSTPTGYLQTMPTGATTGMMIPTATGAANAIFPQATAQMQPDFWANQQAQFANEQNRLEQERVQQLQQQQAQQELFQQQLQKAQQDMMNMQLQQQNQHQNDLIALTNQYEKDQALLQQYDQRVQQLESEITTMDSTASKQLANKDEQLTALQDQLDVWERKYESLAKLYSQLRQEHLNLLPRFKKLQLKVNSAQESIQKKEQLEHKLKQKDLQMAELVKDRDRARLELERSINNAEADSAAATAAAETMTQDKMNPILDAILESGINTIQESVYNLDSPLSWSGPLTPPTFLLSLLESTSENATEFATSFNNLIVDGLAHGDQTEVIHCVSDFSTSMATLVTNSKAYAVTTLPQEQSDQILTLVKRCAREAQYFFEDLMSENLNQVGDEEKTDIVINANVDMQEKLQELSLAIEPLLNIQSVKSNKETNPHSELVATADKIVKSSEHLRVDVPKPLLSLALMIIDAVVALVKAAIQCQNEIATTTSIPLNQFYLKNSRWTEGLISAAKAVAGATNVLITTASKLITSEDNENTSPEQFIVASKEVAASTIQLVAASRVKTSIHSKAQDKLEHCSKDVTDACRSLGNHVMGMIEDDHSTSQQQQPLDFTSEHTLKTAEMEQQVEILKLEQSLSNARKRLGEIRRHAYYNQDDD

- binding (End3 (S. cerevisiae)): binds
- binding (Pan1): binds
- binding (Sla2): binds
B1: Sla2 (protein, UniProt P33338 1-968)
chain: T3 sequence (looked up)
